Experimental data: PubChem BioAssay AID1224827 (NIAID, 2016)
Here is an unselected part of about 3,800 reagents tested. About 2,200 of them (57%) count as active. 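Active means a strong reporter change in either direction; calls are per siRNA, not per gene; qiagen siRNAs gave weaker effects.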 A number with no mark means an inactive call. Further read-outs or replicates are left out here.

Assay: 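Retest primary hits on a TNF reporter with six siRNAs per gene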 (follow-up of hits)
Cell system: RAW264.7 G9 mouse macrophage reporter clone
Reagent: single siRNA against mouse genes, 100 nM siRNA
Duration: siRNA for 2 days, then LPS about 16 h
Challenge: bacterial lipopolysaccharide (LPS), 10 ng/ml, cells fixed after overnight (about 16 h) stimulation
Measurement: 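Imaged nuclear TNF reporter intensity, background removed, scaled per plate and to non-targeting control wells, as z-scores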
Scale: TNF reporter z-score, mean: higher = stronger Tnf promoter reporter signal; gene median z, three same-vendor siRNAs: higher = stronger Tnf reporter signal for the gene
Hit rule: 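Active siRNA: replicate-mean z-score of 2 or more, or -2 or less; no calls for control wells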

| target | PubChem SID | TNF reporter z-score, mean | gene median z, three same-vendor siRNAs |
| --- | --- | --- | --- |
| Tbck | SID315487536 | -1.42 | -2.07 |
| Tbck | SID315487537 | -1.52 | -2.07 |
| Tbck | SID315487538 | -4.03 (active) | -2.07 |
| Trim12a | SID315486846 | -2.85 (active) | -4.95 |
| Trim12a | SID315486847 | -4.95 (active) | -4.95 |
| Trim12a | SID315486848 | -5.57 (active) | -4.95 |
| Trim12a | SID315486849 | 0.28 | -0.575 |
| Trim12a | SID315486850 | 0.135 | -0.575 |
| Trim12a | SID315486851 | -1.07 | -0.575 |
| Senp3 | SID315487083 | -1.23 | -2.71 |
| Senp3 | SID315487084 | -2.71 (active) | -2.71 |
| Senp3 | SID315487085 | -3.75 (active) | -2.71 |
| Senp3 | SID315487086 | 1.7 | -0.0452 |
| Senp3 | SID315487087 | 0.9 | -0.0452 |
| Senp3 | SID315487088 | -1.78 | -0.0452 |
| Onecut2 | SID315488280 | 1.54 | -2.78 |
| Onecut2 | SID315488281 | -2.82 (active) | -2.78 |
| Onecut2 | SID315488282 | -3.68 (active) | -2.78 |
| Onecut2 | SID315488283 | 0.776 | 0.424 |
| Onecut2 | SID315488284 | 0.586 | 0.424 |
| Onecut2 | SID315488285 | -3.24 (active) | 0.424 |
| Sgpl1 | SID315484866 | 2.43 (active) | -1.19 |
| Sgpl1 | SID315484867 | -1.19 | -1.19 |
| Sgpl1 | SID315484868 | -2.34 (active) | -1.19 |
| Sgpl1 | SID315484869 | 1.74 | 0.599 |
| Sgpl1 | SID315484870 | 0.819 | 0.599 |
| Sgpl1 | SID315484871 | 0.211 | 0.599 |
| Cdh6 | SID315483927 | -3.22 (active) | -3.69 |
| Cdh6 | SID315483928 | -3.56 (active) | -3.69 |
| Cdh6 | SID315483929 | -5.55 (active) | -3.69 |

Records listed so far whose target name starts with S or s:
| target | PubChem SID | TNF reporter z-score, mean | gene median z, three same-vendor siRNAs |
| --- | --- | --- | --- |
| Senp3 | SID315487083 | -1.23 | -2.71 |
| Senp3 | SID315487084 | -2.71 (active) | -2.71 |
| Senp3 | SID315487085 | -3.75 (active) | -2.71 |
| Senp3 | SID315487086 | 1.7 | -0.0452 |
| Senp3 | SID315487087 | 0.9 | -0.0452 |
| Senp3 | SID315487088 | -1.78 | -0.0452 |
| Sgpl1 | SID315484866 | 2.43 (active) | -1.19 |
| Sgpl1 | SID315484867 | -1.19 | -1.19 |
| Sgpl1 | SID315484868 | -2.34 (active) | -1.19 |
| Sgpl1 | SID315484869 | 1.74 | 0.599 |
| Sgpl1 | SID315484870 | 0.819 | 0.599 |
| Sgpl1 | SID315484871 | 0.211 | 0.599 |

The listing continues:
| target | PubChem SID | TNF reporter z-score, mean | gene median z, three same-vendor siRNAs |
| --- | --- | --- | --- |
| Raet1b | SID315484755 | -2.24 (active) | -3.53 |
| Raet1b | SID315484756 | -3.53 (active) | -3.53 |
| Raet1b | SID315484757 | -4.99 (active) | -3.53 |
| Raet1b | SID315484758 | 1.44 | -0.0644 |
| Raet1b | SID315484759 | 0.189 | -0.0644 |
| Raet1b | SID315484760 | -0.49 | -0.0644 |
| Reps2 | SID315488001 | 1.97 | -3.63 |
| Reps2 | SID315488002 | -3.63 (active) | -3.63 |
| Reps2 | SID315488003 | -5.76 (active) | -3.63 |
| Reps2 | SID315488004 | 3.46 (active) | 1.95 |
| Reps2 | SID315488005 | 1.95 | 1.95 |
| Reps2 | SID315488006 | 0.472 | 1.95 |
| Twist1 | SID315485064 | -1.27 | -2.33 |
| Twist1 | SID315485065 | -2.18 (active) | -2.33 |
| Twist1 | SID315485066 | -2.6 (active) | -2.33 |
| Twist1 | SID315485067 | 2.34 (active) | -0.248 |
| Twist1 | SID315485068 | 0.612 | -0.248 |
| Twist1 | SID315485069 | -1.64 | -0.248 |
| Ncor2 | SID315484890 | -2.78 (active) | -4.13 |
| Ncor2 | SID315484891 | -4.13 (active) | -4.13 |
| Ncor2 | SID315484892 | -5.99 (active) | -4.13 |
| Ncor2 | SID315484893 | 0.566 | -1.5 |
| Ncor2 | SID315484894 | -1.31 | -1.5 |
| Ncor2 | SID315484895 | -1.84 | -1.5 |
| Prpf39 | SID315488952 | -3.28 (active) | -4.06 |
| Prpf39 | SID315488953 | -4.1 (active) | -4.06 |
| Prpf39 | SID315488954 | -4.6 (active) | -4.06 |
| Prpf39 | SID315488955 | 1.81 | 0.87 |
| Prpf39 | SID315488956 | 1.18 | 0.87 |
| Prpf39 | SID315488957 | -0.307 | 0.87 |
